Record: PubChem BioAssay AID1259308 (NCATS, 2017)
Here is a random part of about 59,000 deposited reagents. About 1,510 of all reagents (2.6%) were called active. 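Calls use total luciferase alone and ignore viability, so some active siRNAs may act by altering cell number.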 Unmarked entries are inactive. The numbers tell different reagents against one gene apart. Not all columns of the deposit are shown.

Screen: 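Candidate targets for better recombinant protein yield in mammalian cells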 (primary screen)
Cells: human HEK293 embryonic kidney cells stably expressing firefly luciferase (HEK-CMV-Luc2-Hygro)
Reagents: single siRNA against human genes, 0.8 pmol siRNA per well
Timing: 72 h
Measurement: 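Reporter luminescence and viable-cell signal on separate replicate plates, given as percent of non-targeting control and median/MAD z-scores, plus per-cell luciferase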
Reading the numbers: total luciferase, z-score and total luciferase, % of control: higher = more reporter protein produced
Call rule: 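Active when the median/MAD z-score for overall luciferase is greater than 3; a gene was taken forward for validation with new siRNAs if at least two of its three siRNAs passed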
Calls: active = raised luciferase; inactive = no rise

With knock-down of IL15 (interleukin 15) #1 the results were total luciferase, z-score 0.817; total luciferase, % of control 98.1.
For IL15 (interleukin 15) #2 the deposit lists total luciferase, z-score 0.213; total luciferase, % of control 86.1.
For IL15 (interleukin 15) #3, the entry reads total luciferase, z-score 1.01; total luciferase, % of control 102.
Knock-down of FZD1 (frizzled class receptor 1) #1 came out at: total luciferase, z-score -2.05; total luciferase, % of control 41.1.
FZD1 (frizzled class receptor 1) #2 gave total luciferase, z-score -1.13; total luciferase, % of control 59.4.
FZD1 (frizzled class receptor 1) #3 gave total luciferase, z-score 0.479; total luciferase, % of control 91.4.

Targets listed so far whose gene name starts with F or f (3):
FZD1 (frizzled class receptor 1) #1 — total luciferase, z-score = -2.05; total luciferase, % of control = 41.1
FZD1 (frizzled class receptor 1) #2 — total luciferase, z-score = -1.13; total luciferase, % of control = 59.4
FZD1 (frizzled class receptor 1) #3 — total luciferase, z-score = 0.479; total luciferase, % of control = 91.4

Continued.
Knock-down of RABGAP1 (RAB GTPase activating protein 1) #1 gave: total luciferase, z-score -0.205; total luciferase, % of control 77.8.
RABGAP1 (RAB GTPase activating protein 1) #2 gave total luciferase, z-score -0.327; total luciferase, % of control 75.4.
RABGAP1 (RAB GTPase activating protein 1) #3 showed total luciferase, z-score -0.749; total luciferase, % of control 67.
Depletion of GLIS2 (GLIS family zinc finger 2) #1 resulted in: total luciferase, z-score 1.88; total luciferase, % of control 119.
With knock-down of GLIS2 (GLIS family zinc finger 2) #2 the results were total luciferase, z-score -1.74; total luciferase, % of control 47.2.
Against GLIS2 (GLIS family zinc finger 2) #3 the deposit lists total luciferase, z-score 1.19; total luciferase, % of control 106.
